We go through two molecules from publication PMC7732531, “Comparable Intestinal and Hepatic First-Pass Effect of YL-IPA08 on the Bioavailability and Effective Brain Exposure, a Rapid Anti-PTSD and Anti-Depression Compound” (Frontiers in Pharmacology, 2020).

Data set [1] can be described thus: Transcellular transport experiment with Caco-2 cells. Particulars: human, Caco-2. Here is the method:
(§1) Caco-2 cell lines were cultured (ATCC, Manassas, VA, United States) as described previously ([Liu et al., 2014]). Briefly, the cells were cultured at 37°C in 5% CO2 at 90% humidity in DMEM high glucose medium containing 20% fetal bovine serum, 1% nonessential amino acids, 100 U/ml penicillin and 1% streptomycin. For the efflux studies, the cells were seeded onto polyethylene terephthalate Millicell® cell culture inserts (0.4 μm pore size, 6.5 mm diameter, Millipore Corporation, Billerica, MA, United States) at a density of 1.7 × 10^5 cells/ml. The culture medium was refreshed on the day after seeding, after which it was refreshed every other day and on the day before the transport experiment. The cells were cultured for 20–22 days after seeding and then evaluated by measuring the transepithelial electrical resistance (TEER) (Millicell ERS®, Millipore Corporation) before experiments. […] Transepithelial permeability studies for YL-IPA08 (10 μM) were conducted from apical to basolateral side (A-B) and basolateral to apical side (B-A) for 120 min 0.2% BSA was included in the receiver solution to avoid nonspecific binding. At 60, 90, and 120 min, half volume of solution from receiver side was withdrawn, and same volume of HBSS was immediately added. Obtained samples were precipitated by adding 4× volumes of acetonitrile containing IS and centrifuged. The supernatants were stored in −20°C until further analysis by LC-MS/MS.
(§2) The in vitro t1/2 in liver microsomal incubation was calculated from the semi-log plot of percentage remaining vs. incubation time and intrinsic clearance (Clint, ml/min/mg protein) was calculated as Eq. 1: CLint=0.693/in vitro t1/2×volume of incubation (μl)/amount of microsomal protein in incubation (mg) (1) ([Suzuki et al., 2003]).Apparent permeability was obtained according to the equation Papp = (dQ/dt)/(A × C0), where dQ/dt is the mass transport rate (determined from the slope of the amount transported vs. time plot), A is the surface area of the monolayer, and C0 is the initial concentration of YL-IPA08 in the donor chamber ([Suzuki et al., 2003]). The efflux ratio was calculated for each study using the following equation: […] = Papp(B–A)/Papp(A–B), where Papp(B–A) and Papp(A–B) represent apparent drug permeability in the B to A and A to B direction, respectively. An efflux ratio greater than 2 indicates net efflux.

The next data set has as its system Caco-2 cells. Described as above. As to the method: as §1, §2
The conditions of data set [2]: male, Sprague-Dawley (SD), rat, in vivo, po, 1 mg/kg.

For `CC(C)NCC(O)COc1ccc(CC(N)=O)cc1` (stereo not shown) [Atenolol], in data set [1], the apical-to-basolateral permeability (Papp A→B) at 120 min, 10 μM is 0.1 ± 0.06 ×10⁻⁶ cm/s; the Papp B→A at 120 min, 10 μM worked out at 0.12 ± 0.11 ×10⁻⁶ cm/s; the efflux ratio at 120 min, 10 μM came out at 1.21. The “Concentration, A-B-A-90min” value with Caco-2 cells (Caco-2, A→B, apical (donor) side, 90 min) came to 7.683 ± 1.484 µM. Further, the “Concentration, A-B-B-90min” value in the data set with Caco-2 cells (Caco-2, A→B, basolateral (receiver) side, 90 min) was found to be 0.002 ± 0.001 µM. For the same molecule, the “Concentration, B-A-A-90min” value with Caco-2 cells (Caco-2, B→A, apical (receiver) side, 90 min) came out at 0.01 ± 0.005 µM. Further, the “Concentration, B-A-B-90min” value in the data set with Caco-2 cells (Caco-2, B→A, basolateral (donor) side, 90 min) was determined as 9.117 ± 0.846 µM. Besides, the “Concentration, DOA” value with Caco-2 cells (Caco-2, apical donor at time 0) was 10.55 ± 0.707 µM. Besides, in the data set with Caco-2 cells (Caco-2, basolateral donor at time 0), the “Concentration, DOB” value was 10.337 ± 0.574 µM.

Turning to `CCN(Cc1ccccn1)C(=O)Cc1c(-c2ccc(Cl)c(Cl)c2)nc2cc(C)ccn12` [YL-IPA08], the AUC in data set [2] was 339 ± 93 h･ng/ml.
